Values from PubChem BioAssay AID1508597 (Cure First, 2020)
Aim: 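Knock-downs altering ovarian cancer cell survival with or without PARP inhibitor rucaparib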 (primary screen). Cells: human ovarian carcinoma lines grown from tumours: OCI-P5x (papillary serous) and OCI-C5x (clear cell). Reagent: siRNA pool against human genes, 1.25 pmol siRNA per well. Timing: 72 h or 96 h, depending on the cell culture. Challenge: rucaparib 20 µM (about IC30) or vehicle, present until read-out. Measured: 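ATP luminescence measured at 72 or 96 h according to the culture, then normalised and expressed as percent viability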. Reading the numbers: viability, normalised: higher = more viable cells remaining. Active means: 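a well counts as a hit if its normalised viability is under 80 percent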. Meaning of the calls: active = viability under 80%; inactive = viability 80% or more.
The deposit covers about 2,100 reagents; this is an unselected part. 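Calls flag viability under 80% in either arm, not effects specific to rucaparib; the reference for percent is not stated.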 Not given: the 100% reference.

target gene | rucaparib or vehicle | cell line | technical replicate | viability, normalised (%) | activity call
ACVR1B | Rucaparib | OCI-C5x (clear cell) | 1 | 59.7 | active
ACVR1B | Rucaparib | OCI-C5x (clear cell) | 2 | 58.3 | active
ACVR1B | Rucaparib | OCI-C5x (clear cell) | 3 | 60.8 | active
ACVR1B | Rucaparib | OCI-P5x (serous) | 1 | 131 | inactive
ACVR1B | Rucaparib | OCI-P5x (serous) | 2 | 115 | inactive
ACVR1B | Rucaparib | OCI-P5x (serous) | 3 | 145 | inactive
ACVR1B | Vehicle | OCI-C5x (clear cell) | 1 | 84 | inactive
ACVR1B | Vehicle | OCI-C5x (clear cell) | 2 | 73.7 | active
ACVR1B | Vehicle | OCI-C5x (clear cell) | 3 | 50.7 | active
ACVR1B | Vehicle | OCI-P5x (serous) | 1 | 105 | inactive
ACVR1B | Vehicle | OCI-P5x (serous) | 2 | 92.8 | inactive
ACVR1B | Vehicle | OCI-P5x (serous) | 3 | 98.1 | inactive
NEK3 | Rucaparib | OCI-C5x (clear cell) | 1 | 52.1 | active
NEK3 | Rucaparib | OCI-C5x (clear cell) | 2 | 55.3 | active
NEK3 | Rucaparib | OCI-C5x (clear cell) | 3 | 49.7 | active
NEK3 | Rucaparib | OCI-P5x (serous) | 1 | 73.2 | active
NEK3 | Rucaparib | OCI-P5x (serous) | 2 | 63.8 | active
NEK3 | Rucaparib | OCI-P5x (serous) | 3 | 65.5 | active
NEK3 | Vehicle | OCI-C5x (clear cell) | 1 | 70.5 | active
NEK3 | Vehicle | OCI-C5x (clear cell) | 2 | 63.5 | active
NEK3 | Vehicle | OCI-C5x (clear cell) | 3 | 50.2 | active
NEK3 | Vehicle | OCI-P5x (serous) | 1 | 89.3 | inactive
NEK3 | Vehicle | OCI-P5x (serous) | 2 | 85.2 | inactive
NEK3 | Vehicle | OCI-P5x (serous) | 3 | 78.5 | active
PDE2A | Rucaparib | OCI-C5x (clear cell) | 1 | 64.2 | active
PDE2A | Rucaparib | OCI-C5x (clear cell) | 2 | 55 | active
PDE2A | Rucaparib | OCI-C5x (clear cell) | 3 | 43.8 | active
PDE2A | Rucaparib | OCI-P5x (serous) | 1 | 51.1 | active
PDE2A | Rucaparib | OCI-P5x (serous) | 2 | 56.4 | active
PDE2A | Rucaparib | OCI-P5x (serous) | 3 | 52.2 | active
PDE2A | Vehicle | OCI-C5x (clear cell) | 1 | 59.2 | active
PDE2A | Vehicle | OCI-C5x (clear cell) | 2 | 57 | active
PDE2A | Vehicle | OCI-C5x (clear cell) | 3 | 60.4 | active
PDE2A | Vehicle | OCI-P5x (serous) | 1 | 73.3 | active
PDE2A | Vehicle | OCI-P5x (serous) | 2 | 82.2 | inactive
PDE2A | Vehicle | OCI-P5x (serous) | 3 | 78.8 | active
VRK2 | Rucaparib | OCI-C5x (clear cell) | 1 | 71.8 | active
VRK2 | Rucaparib | OCI-C5x (clear cell) | 2 | 62.1 | active
VRK2 | Rucaparib | OCI-C5x (clear cell) | 3 | 53.8 | active
VRK2 | Rucaparib | OCI-P5x (serous) | 1 | 126 | inactive
VRK2 | Rucaparib | OCI-P5x (serous) | 2 | 152 | inactive
VRK2 | Rucaparib | OCI-P5x (serous) | 3 | 130 | inactive
VRK2 | Vehicle | OCI-C5x (clear cell) | 1 | 77.5 | active
VRK2 | Vehicle | OCI-C5x (clear cell) | 2 | 69.2 | active
VRK2 | Vehicle | OCI-C5x (clear cell) | 3 | 63.2 | active
VRK2 | Vehicle | OCI-P5x (serous) | 1 | 98.6 | inactive
VRK2 | Vehicle | OCI-P5x (serous) | 2 | 96 | inactive
VRK2 | Vehicle | OCI-P5x (serous) | 3 | 86.4 | inactive
CDC42BPG | Rucaparib | OCI-C5x (clear cell) | 1 | 66.2 | active
CDC42BPG | Rucaparib | OCI-C5x (clear cell) | 2 | 49.9 | active
CDC42BPG | Rucaparib | OCI-C5x (clear cell) | 3 | 52 | active
CDC42BPG | Rucaparib | OCI-P5x (serous) | 1 | 96.9 | inactive
CDC42BPG | Rucaparib | OCI-P5x (serous) | 2 | 91.9 | inactive
CDC42BPG | Rucaparib | OCI-P5x (serous) | 3 | 92 | inactive
CDC42BPG | Vehicle | OCI-C5x (clear cell) | 1 | 55.9 | active
CDC42BPG | Vehicle | OCI-C5x (clear cell) | 2 | 62 | active
CDC42BPG | Vehicle | OCI-C5x (clear cell) | 3 | 44.9 | active
CDC42BPG | Vehicle | OCI-P5x (serous) | 1 | 92.1 | inactive
CDC42BPG | Vehicle | OCI-P5x (serous) | 2 | 70.3 | active
CDC42BPG | Vehicle | OCI-P5x (serous) | 3 | 68.9 | active
MAD1L1 | Rucaparib | OCI-C5x (clear cell) | 1 | 51.1 | active
MAD1L1 | Rucaparib | OCI-C5x (clear cell) | 2 | 29.1 | active
MAD1L1 | Rucaparib | OCI-C5x (clear cell) | 3 | 53.8 | active
MAD1L1 | Rucaparib | OCI-P5x (serous) | 1 | 70.2 | active
MAD1L1 | Rucaparib | OCI-P5x (serous) | 2 | 87.6 | inactive
MAD1L1 | Rucaparib | OCI-P5x (serous) | 3 | 74.6 | active
MAD1L1 | Vehicle | OCI-C5x (clear cell) | 1 | 31 | active
MAD1L1 | Vehicle | OCI-C5x (clear cell) | 2 | 34 | active
MAD1L1 | Vehicle | OCI-C5x (clear cell) | 3 | 50.2 | active
MAD1L1 | Vehicle | OCI-P5x (serous) | 1 | 78 | active
MAD1L1 | Vehicle | OCI-P5x (serous) | 2 | 74.2 | active
MAD1L1 | Vehicle | OCI-P5x (serous) | 3 | 79 | active
SMARCC2 | Rucaparib | OCI-C5x (clear cell) | 1 | 43.1 | active
SMARCC2 | Rucaparib | OCI-C5x (clear cell) | 2 | 44.8 | active
SMARCC2 | Rucaparib | OCI-C5x (clear cell) | 3 | 42.2 | active
SMARCC2 | Rucaparib | OCI-P5x (serous) | 1 | 45.4 | active
SMARCC2 | Rucaparib | OCI-P5x (serous) | 2 | 51.9 | active
SMARCC2 | Rucaparib | OCI-P5x (serous) | 3 | 49 | active
SMARCC2 | Vehicle | OCI-C5x (clear cell) | 1 | 43.4 | active
SMARCC2 | Vehicle | OCI-C5x (clear cell) | 2 | 32.7 | active
SMARCC2 | Vehicle | OCI-C5x (clear cell) | 3 | 45.1 | active
SMARCC2 | Vehicle | OCI-P5x (serous) | 1 | 62.1 | active
SMARCC2 | Vehicle | OCI-P5x (serous) | 2 | 61.2 | active
SMARCC2 | Vehicle | OCI-P5x (serous) | 3 | 46.2 | active

6 entries already listed, ordered by “viability, normalised (%)”, ascending.
target gene | rucaparib or vehicle | cell line | technical replicate | viability, normalised (%) | activity call
PDE2A | Rucaparib | OCI-P5x (serous) | 3 | 52.2 | active
PDE2A | Rucaparib | OCI-P5x (serous) | 2 | 56.4 | active
PDE2A | Vehicle | OCI-C5x (clear cell) | 2 | 57 | active
PDE2A | Vehicle | OCI-C5x (clear cell) | 1 | 59.2 | active
PDE2A | Vehicle | OCI-C5x (clear cell) | 3 | 60.4 | active
PDE2A | Vehicle | OCI-P5x (serous) | 1 | 73.3 | active
